Measured values from paper PMC11526107.
These are yes or no findings as the source states them, for the method shown. Binding seen in cells or lysates may run through a third protein. Some entries that bind do so weakly or less than the wild type. For part of these data: Sequences can lack the tags named with a protein.

Protein sequences, listed by entry. Tags and fused reporters are not part of them. Lines headed by an entry give the natural chain unless they say otherwise; changes in a name come on top. Chains listed by the source or under a name are the forms on record and can include a tag or linker.
UniProt Q86WV6: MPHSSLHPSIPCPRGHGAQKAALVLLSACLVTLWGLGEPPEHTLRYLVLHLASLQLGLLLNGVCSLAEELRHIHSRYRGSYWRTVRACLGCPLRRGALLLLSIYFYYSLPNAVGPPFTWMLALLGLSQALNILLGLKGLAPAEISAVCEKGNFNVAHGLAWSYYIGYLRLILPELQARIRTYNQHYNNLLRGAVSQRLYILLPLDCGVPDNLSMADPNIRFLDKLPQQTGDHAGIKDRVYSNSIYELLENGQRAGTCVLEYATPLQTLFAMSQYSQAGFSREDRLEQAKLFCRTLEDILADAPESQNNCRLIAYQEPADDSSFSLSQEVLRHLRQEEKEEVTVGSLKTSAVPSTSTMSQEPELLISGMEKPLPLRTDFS
ZAPS (ZC3HAV1 short isoform), endogenous in THP-1 cells (Q7Z2W4-2, form named): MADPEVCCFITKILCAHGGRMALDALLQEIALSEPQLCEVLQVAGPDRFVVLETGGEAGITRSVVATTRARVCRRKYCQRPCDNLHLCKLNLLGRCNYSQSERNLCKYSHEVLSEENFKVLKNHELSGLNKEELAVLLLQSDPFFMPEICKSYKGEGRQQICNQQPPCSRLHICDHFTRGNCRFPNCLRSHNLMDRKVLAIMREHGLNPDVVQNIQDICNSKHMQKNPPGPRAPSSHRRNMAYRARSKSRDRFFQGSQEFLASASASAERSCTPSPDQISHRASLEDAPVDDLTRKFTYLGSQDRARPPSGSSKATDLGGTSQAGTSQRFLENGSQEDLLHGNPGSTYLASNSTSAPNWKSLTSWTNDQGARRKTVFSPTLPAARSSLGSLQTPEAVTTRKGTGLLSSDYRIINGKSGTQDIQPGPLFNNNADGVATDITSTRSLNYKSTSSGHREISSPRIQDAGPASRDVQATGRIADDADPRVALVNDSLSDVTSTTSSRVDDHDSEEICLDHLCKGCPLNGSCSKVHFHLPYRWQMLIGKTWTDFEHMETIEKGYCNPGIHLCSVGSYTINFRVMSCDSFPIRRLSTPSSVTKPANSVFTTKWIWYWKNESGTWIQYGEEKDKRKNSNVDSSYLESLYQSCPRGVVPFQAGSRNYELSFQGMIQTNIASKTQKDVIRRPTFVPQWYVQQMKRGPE

How the values were obtained:
Myc-tagged STING = target: T1, Myc-tagged STING (UniProt Q3TBT3); test: co-IP; HEK293T cells transfected with tagged plasmids; IP buffer 1.0% Nonidet P 40, 50 mM Tris-HCl pH 7.4, 50 mM EDTA, 150 mM NaCl
T1 sequence: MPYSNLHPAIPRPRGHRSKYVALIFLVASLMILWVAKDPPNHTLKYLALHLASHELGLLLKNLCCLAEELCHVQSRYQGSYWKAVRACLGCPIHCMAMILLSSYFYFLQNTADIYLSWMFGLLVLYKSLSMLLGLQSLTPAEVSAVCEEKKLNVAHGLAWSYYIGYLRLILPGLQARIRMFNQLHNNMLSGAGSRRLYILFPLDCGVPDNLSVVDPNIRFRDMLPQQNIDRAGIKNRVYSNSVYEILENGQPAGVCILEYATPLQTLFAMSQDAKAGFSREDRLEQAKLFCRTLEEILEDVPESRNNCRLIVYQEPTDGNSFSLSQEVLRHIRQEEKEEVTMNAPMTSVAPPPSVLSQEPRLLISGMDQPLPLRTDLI

[1] = target: Stimulator of interferon genes (STING), endogenous in THP-1 cells (human (endogenous in THP-1)) (UniProt Q86WV6); test: co-IP; endogenous proteins in THP-1 cells, resting or stimulated with ISD; IP buffer 1.0% Nonidet P 40, 50 mM Tris-HCl pH 7.4, 50 mM EDTA, 150 mM NaCl

binding (Myc-tagged STING) | binding [1] | Substance
binds | – | Flag-tagged ZAPS (from UniProt Q7Z2W4-2 1-699)
– | binds | ZAPL (ZC3HAV1 long isoform), endogenous in THP-1 cells (from UniProt Q7Z2W4-1 1-902)
– | binds | ZAPS (ZC3HAV1 short isoform), endogenous in THP-1 cells (from UniProt Q7Z2W4-2 1-699)
